Source: publication PMC5053439
No constants are given. Whether binding was seen depends on the method and setting. Binding seen in cells or lysates may run through a third protein. Some results given as binding are weak or reduced against the parent protein; the word gives no strength. For some of these results: Where a sequence is shown, tags or fusion partners need not be part of it.

The chains behind the UniProt entries cited, without tags or fusion partners.
UniProt P32780: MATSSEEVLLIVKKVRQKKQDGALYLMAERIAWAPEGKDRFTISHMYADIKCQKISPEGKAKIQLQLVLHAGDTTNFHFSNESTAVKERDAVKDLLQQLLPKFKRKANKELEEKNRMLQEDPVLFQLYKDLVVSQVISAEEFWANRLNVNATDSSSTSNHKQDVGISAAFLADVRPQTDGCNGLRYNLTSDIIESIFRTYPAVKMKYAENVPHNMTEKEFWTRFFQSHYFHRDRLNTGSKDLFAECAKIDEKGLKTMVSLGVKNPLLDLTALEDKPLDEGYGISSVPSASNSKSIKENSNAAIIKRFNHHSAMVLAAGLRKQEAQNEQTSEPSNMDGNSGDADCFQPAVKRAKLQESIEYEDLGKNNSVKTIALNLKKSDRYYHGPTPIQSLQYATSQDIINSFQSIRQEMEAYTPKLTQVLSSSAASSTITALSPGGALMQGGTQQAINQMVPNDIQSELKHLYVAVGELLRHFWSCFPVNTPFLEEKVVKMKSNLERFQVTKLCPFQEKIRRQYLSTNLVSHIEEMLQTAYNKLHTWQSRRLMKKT
UniProt P21698: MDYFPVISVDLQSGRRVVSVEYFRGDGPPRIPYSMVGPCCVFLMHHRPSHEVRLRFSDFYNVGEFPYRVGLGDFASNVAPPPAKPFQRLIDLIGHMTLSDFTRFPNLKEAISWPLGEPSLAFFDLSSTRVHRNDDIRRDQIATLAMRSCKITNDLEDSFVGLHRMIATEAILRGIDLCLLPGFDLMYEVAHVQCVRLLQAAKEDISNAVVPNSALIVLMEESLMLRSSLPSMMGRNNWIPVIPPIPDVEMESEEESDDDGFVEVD

Columns and labels:
[1] = target: TFIIH subunit p62 (GTF2H1) (human (endogenous in HeLa)) (UniProt P32780); experiment: co-IP; […] (20 mM Tris-HCl pH 7.6, 0.1% Triton X-100, 150 mM NaCl, 1 mM EDTA, […]
[2] = target: T1, human FBXO3 isoform 1 with an N-terminal V5 tag (human) (UniProt Q9UK99); experiment: co-IP
T1 sequence: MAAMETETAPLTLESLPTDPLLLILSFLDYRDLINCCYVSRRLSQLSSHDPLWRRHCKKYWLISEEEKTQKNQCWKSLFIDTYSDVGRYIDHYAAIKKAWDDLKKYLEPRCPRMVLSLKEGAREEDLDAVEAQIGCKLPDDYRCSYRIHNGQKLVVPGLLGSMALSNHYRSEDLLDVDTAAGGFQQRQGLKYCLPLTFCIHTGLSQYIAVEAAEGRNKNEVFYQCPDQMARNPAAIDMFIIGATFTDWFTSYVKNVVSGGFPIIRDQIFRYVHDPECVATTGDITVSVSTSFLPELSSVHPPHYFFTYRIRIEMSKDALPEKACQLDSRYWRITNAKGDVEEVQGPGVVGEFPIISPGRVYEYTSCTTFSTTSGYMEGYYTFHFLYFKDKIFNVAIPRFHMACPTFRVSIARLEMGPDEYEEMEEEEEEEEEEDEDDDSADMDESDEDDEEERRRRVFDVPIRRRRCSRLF

[3] = target: T2, human Sin3-associated protein 30 with an N-terminal V5 tag (human) (UniProt O75446); experiment: co-IP
T2 sequence: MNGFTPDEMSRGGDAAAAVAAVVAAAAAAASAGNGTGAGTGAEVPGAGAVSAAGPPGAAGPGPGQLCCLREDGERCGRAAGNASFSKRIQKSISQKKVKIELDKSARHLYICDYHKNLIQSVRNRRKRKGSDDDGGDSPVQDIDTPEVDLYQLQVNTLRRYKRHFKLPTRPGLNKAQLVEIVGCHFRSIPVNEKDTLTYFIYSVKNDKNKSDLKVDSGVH

[4] = target: T3, TFIIH subunit p44 (GTF2H2) (human (endogenous in HeLa)) (UniProt Q13888); experiment: co-IP
T3 sequence: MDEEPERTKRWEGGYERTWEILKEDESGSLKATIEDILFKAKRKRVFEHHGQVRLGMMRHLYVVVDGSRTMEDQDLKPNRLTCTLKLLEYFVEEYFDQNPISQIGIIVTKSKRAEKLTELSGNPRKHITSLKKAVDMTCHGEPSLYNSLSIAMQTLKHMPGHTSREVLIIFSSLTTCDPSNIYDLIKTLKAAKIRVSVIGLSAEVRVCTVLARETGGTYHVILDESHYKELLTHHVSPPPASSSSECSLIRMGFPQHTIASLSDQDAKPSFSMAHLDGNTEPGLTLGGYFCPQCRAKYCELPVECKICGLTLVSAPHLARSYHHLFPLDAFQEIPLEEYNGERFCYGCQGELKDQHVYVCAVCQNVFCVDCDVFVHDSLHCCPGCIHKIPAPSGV

Measured: binding

RVFV MP-12 NSs protein with a C-terminal Flag tag (wild type NSs) (from UniProt P21698 1-265)
binds: all assays above
